Experimental data published in the supplement of paper PMC12823440, “Inhibitors supercharge kinase turnover through native proteolytic circuits” (Nature, 2025).
The list shows a part of the results. The calls rarely recur for the same compound in another form.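 Kinases were expressed as nanoluciferase fusions in K562 cells and luminescence was read every 4 h between 2 and 18 h as percent of control, DMSO set to 100% and a positive control to 0%. A time point counts as decreased when the signal drops significantly (2 sigma). The hit call is the authors' own, does not follow from the count of time points alone, and its rule is not shown.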

Amino acid sequences for entries named in this document (tags omitted). A change or cut given only in a name is not applied to a line headed by its entry.
UniProt P06241, whole entry, looked up: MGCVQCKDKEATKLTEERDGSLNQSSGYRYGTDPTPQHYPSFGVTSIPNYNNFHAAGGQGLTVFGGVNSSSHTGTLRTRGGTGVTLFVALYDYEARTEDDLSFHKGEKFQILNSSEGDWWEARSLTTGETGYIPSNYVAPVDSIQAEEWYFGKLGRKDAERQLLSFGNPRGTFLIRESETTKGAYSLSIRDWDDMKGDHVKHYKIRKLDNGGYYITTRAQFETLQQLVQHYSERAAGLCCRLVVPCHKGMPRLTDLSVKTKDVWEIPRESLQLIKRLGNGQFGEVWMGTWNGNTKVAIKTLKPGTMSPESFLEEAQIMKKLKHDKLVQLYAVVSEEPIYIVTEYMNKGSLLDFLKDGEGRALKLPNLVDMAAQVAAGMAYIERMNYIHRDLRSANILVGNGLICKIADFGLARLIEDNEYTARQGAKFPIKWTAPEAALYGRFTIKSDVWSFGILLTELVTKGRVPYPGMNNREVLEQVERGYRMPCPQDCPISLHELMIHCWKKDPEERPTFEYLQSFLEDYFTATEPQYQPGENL
UniProt P49840: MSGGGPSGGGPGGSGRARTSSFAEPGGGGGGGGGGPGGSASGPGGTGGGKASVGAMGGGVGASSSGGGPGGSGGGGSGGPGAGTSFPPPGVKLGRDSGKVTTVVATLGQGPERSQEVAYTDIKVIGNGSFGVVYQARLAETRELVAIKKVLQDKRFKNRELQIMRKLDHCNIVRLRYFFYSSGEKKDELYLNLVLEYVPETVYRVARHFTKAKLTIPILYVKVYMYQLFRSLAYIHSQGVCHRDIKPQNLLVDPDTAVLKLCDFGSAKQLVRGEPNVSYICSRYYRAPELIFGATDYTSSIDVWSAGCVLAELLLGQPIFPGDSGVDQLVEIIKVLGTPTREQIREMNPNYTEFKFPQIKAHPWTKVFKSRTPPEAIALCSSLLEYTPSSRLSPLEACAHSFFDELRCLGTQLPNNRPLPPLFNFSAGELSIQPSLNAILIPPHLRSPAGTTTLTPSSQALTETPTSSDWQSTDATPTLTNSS
UniProt P14616: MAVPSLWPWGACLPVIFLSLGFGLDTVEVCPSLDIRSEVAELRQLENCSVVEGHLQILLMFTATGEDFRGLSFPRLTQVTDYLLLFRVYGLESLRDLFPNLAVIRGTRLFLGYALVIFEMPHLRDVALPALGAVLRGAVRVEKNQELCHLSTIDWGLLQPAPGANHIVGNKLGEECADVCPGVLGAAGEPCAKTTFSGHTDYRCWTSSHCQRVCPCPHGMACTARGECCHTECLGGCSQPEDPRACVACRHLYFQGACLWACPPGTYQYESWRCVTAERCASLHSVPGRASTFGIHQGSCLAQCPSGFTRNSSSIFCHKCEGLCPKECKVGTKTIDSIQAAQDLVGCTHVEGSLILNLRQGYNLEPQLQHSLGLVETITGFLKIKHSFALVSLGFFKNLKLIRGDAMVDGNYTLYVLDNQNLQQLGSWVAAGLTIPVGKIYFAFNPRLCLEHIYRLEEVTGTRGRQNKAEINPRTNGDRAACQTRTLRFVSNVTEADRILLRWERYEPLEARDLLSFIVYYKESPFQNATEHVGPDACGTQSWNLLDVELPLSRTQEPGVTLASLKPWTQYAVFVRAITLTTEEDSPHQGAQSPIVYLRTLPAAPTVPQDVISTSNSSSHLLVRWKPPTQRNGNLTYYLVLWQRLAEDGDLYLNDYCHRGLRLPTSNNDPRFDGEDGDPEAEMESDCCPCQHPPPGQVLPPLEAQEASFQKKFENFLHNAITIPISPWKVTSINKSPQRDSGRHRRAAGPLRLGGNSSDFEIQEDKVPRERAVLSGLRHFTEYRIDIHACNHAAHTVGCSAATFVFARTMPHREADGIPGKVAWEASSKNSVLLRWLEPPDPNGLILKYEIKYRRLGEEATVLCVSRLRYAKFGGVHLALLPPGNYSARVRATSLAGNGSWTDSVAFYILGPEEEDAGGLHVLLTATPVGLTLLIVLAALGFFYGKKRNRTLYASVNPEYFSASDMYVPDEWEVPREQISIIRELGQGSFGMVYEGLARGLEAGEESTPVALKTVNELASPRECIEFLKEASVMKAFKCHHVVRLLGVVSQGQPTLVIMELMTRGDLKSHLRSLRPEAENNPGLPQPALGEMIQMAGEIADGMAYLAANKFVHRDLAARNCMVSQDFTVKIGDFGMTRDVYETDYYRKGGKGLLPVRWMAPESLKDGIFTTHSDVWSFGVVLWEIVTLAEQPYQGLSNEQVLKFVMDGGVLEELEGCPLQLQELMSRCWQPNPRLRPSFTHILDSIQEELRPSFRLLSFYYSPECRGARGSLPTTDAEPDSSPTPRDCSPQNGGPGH
UniProt Q9Y616: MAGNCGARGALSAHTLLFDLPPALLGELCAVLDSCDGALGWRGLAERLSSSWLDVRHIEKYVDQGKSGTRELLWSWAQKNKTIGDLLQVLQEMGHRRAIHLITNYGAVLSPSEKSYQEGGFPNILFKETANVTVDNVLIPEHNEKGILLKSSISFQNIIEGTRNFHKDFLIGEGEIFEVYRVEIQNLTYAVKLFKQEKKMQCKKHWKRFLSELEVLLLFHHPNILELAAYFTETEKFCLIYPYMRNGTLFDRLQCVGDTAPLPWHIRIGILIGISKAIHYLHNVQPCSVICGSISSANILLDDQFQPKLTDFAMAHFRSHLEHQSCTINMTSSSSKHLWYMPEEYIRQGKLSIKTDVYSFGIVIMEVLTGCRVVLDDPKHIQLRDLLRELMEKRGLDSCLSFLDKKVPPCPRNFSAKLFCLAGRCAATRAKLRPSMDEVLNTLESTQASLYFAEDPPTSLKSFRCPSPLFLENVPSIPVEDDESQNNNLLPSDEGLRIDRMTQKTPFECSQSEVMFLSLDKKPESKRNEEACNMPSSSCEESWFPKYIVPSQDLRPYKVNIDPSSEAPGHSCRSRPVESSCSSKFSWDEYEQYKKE
UniProt P23458: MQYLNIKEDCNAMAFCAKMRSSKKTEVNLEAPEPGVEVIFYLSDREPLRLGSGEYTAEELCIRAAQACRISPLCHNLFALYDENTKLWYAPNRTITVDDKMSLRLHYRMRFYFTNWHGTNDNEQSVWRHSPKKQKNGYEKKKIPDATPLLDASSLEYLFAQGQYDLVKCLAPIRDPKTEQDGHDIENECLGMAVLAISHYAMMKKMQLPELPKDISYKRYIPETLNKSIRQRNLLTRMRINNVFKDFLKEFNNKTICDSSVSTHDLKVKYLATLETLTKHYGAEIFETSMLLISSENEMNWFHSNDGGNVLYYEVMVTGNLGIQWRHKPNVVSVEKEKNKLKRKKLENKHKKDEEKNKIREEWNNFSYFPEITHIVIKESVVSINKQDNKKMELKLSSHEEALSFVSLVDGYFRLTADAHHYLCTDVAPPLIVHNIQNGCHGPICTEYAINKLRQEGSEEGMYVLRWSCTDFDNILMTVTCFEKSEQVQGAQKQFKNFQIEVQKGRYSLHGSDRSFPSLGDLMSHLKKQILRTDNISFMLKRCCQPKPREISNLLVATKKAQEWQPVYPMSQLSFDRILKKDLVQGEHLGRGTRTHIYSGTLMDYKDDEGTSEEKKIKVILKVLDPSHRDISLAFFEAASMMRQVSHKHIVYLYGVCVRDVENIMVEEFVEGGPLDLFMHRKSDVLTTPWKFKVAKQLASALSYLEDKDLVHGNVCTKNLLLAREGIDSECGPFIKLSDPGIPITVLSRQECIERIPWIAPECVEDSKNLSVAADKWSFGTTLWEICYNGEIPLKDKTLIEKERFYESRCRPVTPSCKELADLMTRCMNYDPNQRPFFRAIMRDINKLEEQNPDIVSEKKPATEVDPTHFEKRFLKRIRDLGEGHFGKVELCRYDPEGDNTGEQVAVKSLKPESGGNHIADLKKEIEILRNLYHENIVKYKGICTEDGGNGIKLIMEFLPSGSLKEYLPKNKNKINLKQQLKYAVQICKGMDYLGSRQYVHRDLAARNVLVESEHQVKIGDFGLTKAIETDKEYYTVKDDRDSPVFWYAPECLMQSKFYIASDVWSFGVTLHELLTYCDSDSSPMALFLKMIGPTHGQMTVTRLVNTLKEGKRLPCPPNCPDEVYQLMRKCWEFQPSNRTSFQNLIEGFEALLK
UniProt P53667: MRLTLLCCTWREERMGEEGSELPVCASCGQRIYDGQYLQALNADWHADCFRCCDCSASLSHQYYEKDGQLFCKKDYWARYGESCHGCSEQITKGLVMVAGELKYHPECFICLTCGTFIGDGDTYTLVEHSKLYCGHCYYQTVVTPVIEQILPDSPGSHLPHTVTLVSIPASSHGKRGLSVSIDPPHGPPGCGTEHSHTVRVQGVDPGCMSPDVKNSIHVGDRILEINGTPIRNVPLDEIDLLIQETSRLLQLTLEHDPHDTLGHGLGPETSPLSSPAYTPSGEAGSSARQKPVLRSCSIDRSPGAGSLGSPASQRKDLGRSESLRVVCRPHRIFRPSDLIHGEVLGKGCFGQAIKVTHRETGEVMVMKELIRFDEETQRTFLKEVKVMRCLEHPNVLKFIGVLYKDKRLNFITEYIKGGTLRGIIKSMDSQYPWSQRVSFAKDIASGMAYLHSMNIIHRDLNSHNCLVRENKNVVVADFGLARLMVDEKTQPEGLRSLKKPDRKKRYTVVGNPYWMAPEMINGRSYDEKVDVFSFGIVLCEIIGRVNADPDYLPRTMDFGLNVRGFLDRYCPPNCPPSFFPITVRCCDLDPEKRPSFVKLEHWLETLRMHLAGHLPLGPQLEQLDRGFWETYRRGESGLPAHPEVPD
UniProt P53671: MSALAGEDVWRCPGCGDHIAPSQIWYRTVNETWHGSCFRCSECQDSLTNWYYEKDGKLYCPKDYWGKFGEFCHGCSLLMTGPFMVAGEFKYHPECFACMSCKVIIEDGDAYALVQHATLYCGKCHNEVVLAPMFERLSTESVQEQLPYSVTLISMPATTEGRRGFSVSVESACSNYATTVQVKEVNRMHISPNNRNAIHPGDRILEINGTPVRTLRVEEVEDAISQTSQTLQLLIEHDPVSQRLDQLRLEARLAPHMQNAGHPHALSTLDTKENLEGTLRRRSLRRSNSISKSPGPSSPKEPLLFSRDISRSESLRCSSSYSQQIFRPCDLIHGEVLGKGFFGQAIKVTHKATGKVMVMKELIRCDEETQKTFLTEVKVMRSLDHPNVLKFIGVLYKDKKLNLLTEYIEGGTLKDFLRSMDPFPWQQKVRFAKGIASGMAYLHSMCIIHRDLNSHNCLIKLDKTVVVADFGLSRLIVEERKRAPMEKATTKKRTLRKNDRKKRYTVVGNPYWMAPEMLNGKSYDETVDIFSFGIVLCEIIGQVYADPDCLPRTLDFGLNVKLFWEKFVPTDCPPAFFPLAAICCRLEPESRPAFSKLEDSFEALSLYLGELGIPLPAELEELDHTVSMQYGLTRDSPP
UniProt P36888, whole entry: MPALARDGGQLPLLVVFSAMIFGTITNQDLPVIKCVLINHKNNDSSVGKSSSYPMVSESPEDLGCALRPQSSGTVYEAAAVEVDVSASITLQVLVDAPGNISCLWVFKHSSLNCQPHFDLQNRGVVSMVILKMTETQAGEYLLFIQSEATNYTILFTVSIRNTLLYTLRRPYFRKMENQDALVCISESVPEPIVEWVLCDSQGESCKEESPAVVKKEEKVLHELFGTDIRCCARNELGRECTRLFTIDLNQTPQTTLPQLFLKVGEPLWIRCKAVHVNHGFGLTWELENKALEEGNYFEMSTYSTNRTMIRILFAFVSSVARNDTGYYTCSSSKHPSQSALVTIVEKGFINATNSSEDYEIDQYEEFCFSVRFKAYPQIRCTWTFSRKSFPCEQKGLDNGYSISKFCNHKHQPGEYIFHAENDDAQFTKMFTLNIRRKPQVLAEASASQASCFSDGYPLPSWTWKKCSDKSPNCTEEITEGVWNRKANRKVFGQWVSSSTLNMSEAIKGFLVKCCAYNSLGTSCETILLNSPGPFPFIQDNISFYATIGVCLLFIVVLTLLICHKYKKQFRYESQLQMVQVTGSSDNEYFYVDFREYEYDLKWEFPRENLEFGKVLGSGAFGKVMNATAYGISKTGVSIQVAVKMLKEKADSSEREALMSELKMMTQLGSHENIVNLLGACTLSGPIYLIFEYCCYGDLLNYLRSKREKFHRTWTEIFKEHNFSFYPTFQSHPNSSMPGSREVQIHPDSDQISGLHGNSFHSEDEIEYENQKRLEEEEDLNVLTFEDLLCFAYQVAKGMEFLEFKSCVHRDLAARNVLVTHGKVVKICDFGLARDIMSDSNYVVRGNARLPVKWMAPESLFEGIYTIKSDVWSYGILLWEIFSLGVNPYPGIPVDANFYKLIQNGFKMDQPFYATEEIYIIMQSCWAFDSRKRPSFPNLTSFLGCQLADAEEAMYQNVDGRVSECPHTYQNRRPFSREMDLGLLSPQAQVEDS

Experiments:
Assay in all cases: kinase-Nluc reporter destabilization hit call (1 = scored as downregulated) (binary); higher = compound decreases kinase abundance
Conditions in all cases: K562; 2-18 h
ERN1 = ERN1 (UniProt O75460)
FGR = FGR (UniProt P09769)
FYN = FYN (UniProt P06241)
GSK3A = GSK3A (UniProt P49840)
HER2 = HER2 (UniProt P04626)
INSRR = INSRR (UniProt P14616)
IRAK3 = IRAK3 (UniProt Q9Y616)
JAK1 = JAK1 (UniProt P23458)
LCK = LCK (UniProt P06239)
LIMK1 = LIMK1 (UniProt P53667)
LIMK2 = LIMK2 (UniProt P53671)
LMTK2 = LMTK2 (UniProt Q8IWU2)
LYN = LYN (UniProt P07948)
MAP2K1 = MAP2K1 (UniProt Q02750)
MAP2K2 = MAP2K2 (UniProt P36507)
MAP4K2 = MAP4K2 (UniProt Q12851)
FGFR3 = FGFR3 (UniProt P22607)
FLT3 = FLT3 (UniProt P36888)
FGFR1 = FGFR1 (UniProt P11362)
FGFR2 = FGFR2 (UniProt P21802)

## COc1cc(OC)cc(N(CCNC(C)C)c2ccc3ncc(-c4cnn(C)c4)nc3c2)c1 [Erdafitinib] (2.5 µM)
ERN1
  kinase-Nluc reporter destabilization hit call: inactive: 0
FGR
  kinase-Nluc reporter destabilization hit call: inactive: 0
FYN
  kinase-Nluc reporter destabilization hit call: inactive: 0
GSK3A
  kinase-Nluc reporter destabilization hit call: inactive: 0
HER2
  kinase-Nluc reporter destabilization hit call: inactive: 0
INSRR
  kinase-Nluc reporter destabilization hit call: inactive: 0
IRAK3
  kinase-Nluc reporter destabilization hit call: inactive: 0
JAK1
  kinase-Nluc reporter destabilization hit call: inactive: 0
LCK
  kinase-Nluc reporter destabilization hit call: inactive: 0
LIMK1
  kinase-Nluc reporter destabilization hit call: inactive: 0
LIMK2
  kinase-Nluc reporter destabilization hit call: inactive: 0
LMTK2
  kinase-Nluc reporter destabilization hit call: inactive: 0
LYN
  kinase-Nluc reporter destabilization hit call: inactive: 0
MAP2K1
  kinase-Nluc reporter destabilization hit call: inactive: 0
MAP2K2
  kinase-Nluc reporter destabilization hit call: inactive: 0
MAP4K2
  kinase-Nluc reporter destabilization hit call: inactive: 0

## C=CC(=O)N1CCN(CCCn2c(=O)c(-c3c(Cl)c(OC)cc(OC)c3Cl)cc3cnc(NC)nc32)CC1 (10 µM)
ERN1
  kinase-Nluc reporter destabilization hit call: inactive: 0
FGFR3
  kinase-Nluc reporter destabilization hit call: inactive: 0
FGR
  kinase-Nluc reporter destabilization hit call: inactive: 0
FLT3
  kinase-Nluc reporter destabilization hit call: inactive: 0
FYN
  kinase-Nluc reporter destabilization hit call: active: 1
GSK3A
  kinase-Nluc reporter destabilization hit call: inactive: 0
HER2
  kinase-Nluc reporter destabilization hit call: inactive: 0
INSRR
  kinase-Nluc reporter destabilization hit call: inactive: 0
IRAK3
  kinase-Nluc reporter destabilization hit call: inactive: 0
JAK1
  kinase-Nluc reporter destabilization hit call: inactive: 0
LCK
  kinase-Nluc reporter destabilization hit call: inactive: 0
LIMK1
  kinase-Nluc reporter destabilization hit call: inactive: 0
LIMK2
  kinase-Nluc reporter destabilization hit call: inactive: 0
LMTK2
  kinase-Nluc reporter destabilization hit call: inactive: 0
LYN
  kinase-Nluc reporter destabilization hit call: inactive: 0
MAP2K1
  kinase-Nluc reporter destabilization hit call: inactive: 0
MAP2K2
  kinase-Nluc reporter destabilization hit call: inactive: 0
MAP4K2
  kinase-Nluc reporter destabilization hit call: inactive: 0

## O=c1cc(N2CCOCC2)oc2c(-c3ccccc3)cccc12 (10 µM)
ERN1
  kinase-Nluc reporter destabilization hit call: inactive: 0
FGFR1
  kinase-Nluc reporter destabilization hit call: inactive: 0
FGFR2
  kinase-Nluc reporter destabilization hit call: inactive: 0
FGFR3
  kinase-Nluc reporter destabilization hit call: inactive: 0
FGR
  kinase-Nluc reporter destabilization hit call: inactive: 0
FLT3
  kinase-Nluc reporter destabilization hit call: inactive: 0
FYN
  kinase-Nluc reporter destabilization hit call: inactive: 0
GSK3A
  kinase-Nluc reporter destabilization hit call: inactive: 0
HER2
  kinase-Nluc reporter destabilization hit call: inactive: 0
INSRR
  kinase-Nluc reporter destabilization hit call: inactive: 0
IRAK3
  kinase-Nluc reporter destabilization hit call: inactive: 0
JAK1
  kinase-Nluc reporter destabilization hit call: inactive: 0
LIMK1
  kinase-Nluc reporter destabilization hit call: inactive: 0
LIMK2
  kinase-Nluc reporter destabilization hit call: inactive: 0
LMTK2
  kinase-Nluc reporter destabilization hit call: inactive: 0
LYN
  kinase-Nluc reporter destabilization hit call: inactive: 0
MAP2K1
  kinase-Nluc reporter destabilization hit call: inactive: 0
MAP2K2
  kinase-Nluc reporter destabilization hit call: inactive: 0
MAP4K2
  kinase-Nluc reporter destabilization hit call: inactive: 0

## C=CC(=O)Nc1cccc(Nc2nc(Nc3ccc(OCCOC)cc3)ncc2F)c1 [Spebrutinib] (10 µM)
FGFR1
  kinase-Nluc reporter destabilization hit call: inactive: 0
FGFR2
  kinase-Nluc reporter destabilization hit call: inactive: 0
FGFR3
  kinase-Nluc reporter destabilization hit call: inactive: 0
FGR
  kinase-Nluc reporter destabilization hit call: inactive: 0
FLT3
  kinase-Nluc reporter destabilization hit call: inactive: 0
FYN
  kinase-Nluc reporter destabilization hit call: inactive: 0
GSK3A
  kinase-Nluc reporter destabilization hit call: inactive: 0
HER2
  kinase-Nluc reporter destabilization hit call: inactive: 0
INSRR
  kinase-Nluc reporter destabilization hit call: inactive: 0
IRAK3
  kinase-Nluc reporter destabilization hit call: inactive: 0
JAK1
  kinase-Nluc reporter destabilization hit call: inactive: 0
LCK
  kinase-Nluc reporter destabilization hit call: inactive: 0
LIMK1
  kinase-Nluc reporter destabilization hit call: inactive: 0
LIMK2
  kinase-Nluc reporter destabilization hit call: inactive: 0
LMTK2
  kinase-Nluc reporter destabilization hit call: inactive: 0
LYN
  kinase-Nluc reporter destabilization hit call: inactive: 0
MAP2K1
  kinase-Nluc reporter destabilization hit call: inactive: 0
MAP2K2
  kinase-Nluc reporter destabilization hit call: inactive: 0
MAP4K2
  kinase-Nluc reporter destabilization hit call: inactive: 0

## O=C(/C=C/c1ccc(O)c(O)c1)c1ccc(O)cc1O [Butein] (10 µM)
ERN1
  kinase-Nluc reporter destabilization hit call: inactive: 0
FGFR2
  kinase-Nluc reporter destabilization hit call: inactive: 0
FGFR3
  kinase-Nluc reporter destabilization hit call: inactive: 0
FGR
  kinase-Nluc reporter destabilization hit call: inactive: 0
FLT3
  kinase-Nluc reporter destabilization hit call: inactive: 0
FYN
  kinase-Nluc reporter destabilization hit call: inactive: 0
GSK3A
  kinase-Nluc reporter destabilization hit call: inactive: 0
HER2
  kinase-Nluc reporter destabilization hit call: inactive: 0
INSRR
  kinase-Nluc reporter destabilization hit call: inactive: 0
IRAK3
  kinase-Nluc reporter destabilization hit call: inactive: 0
JAK1
  kinase-Nluc reporter destabilization hit call: inactive: 0
LCK
  kinase-Nluc reporter destabilization hit call: inactive: 0
LIMK1
  kinase-Nluc reporter destabilization hit call: inactive: 0
LIMK2
  kinase-Nluc reporter destabilization hit call: inactive: 0
LMTK2
  kinase-Nluc reporter destabilization hit call: inactive: 0
LYN
  kinase-Nluc reporter destabilization hit call: inactive: 0
MAP2K1
  kinase-Nluc reporter destabilization hit call: inactive: 0
MAP2K2
  kinase-Nluc reporter destabilization hit call: inactive: 0
MAP4K2
  kinase-Nluc reporter destabilization hit call: inactive: 0
